# According to article PMC11379886, “Insights into phosphoethanolamine cellulose synthesis and secretion across the Gram-negative cell envelope” (Nature Communications, 2024):
# Results are given in words; binding and its absence hold for the method and conditions named. For some assays here: In cells and extracts the contact can be indirect. Some binding calls cover weakened binding; strength is not graded here. For some assays here: Sequences can lack the tags named with a protein.
# T1: Escherichia coli BcsG with C-terminal dodeca-histidine tag (Escherichia coli) (UniProt P37659)
# T1 sequence: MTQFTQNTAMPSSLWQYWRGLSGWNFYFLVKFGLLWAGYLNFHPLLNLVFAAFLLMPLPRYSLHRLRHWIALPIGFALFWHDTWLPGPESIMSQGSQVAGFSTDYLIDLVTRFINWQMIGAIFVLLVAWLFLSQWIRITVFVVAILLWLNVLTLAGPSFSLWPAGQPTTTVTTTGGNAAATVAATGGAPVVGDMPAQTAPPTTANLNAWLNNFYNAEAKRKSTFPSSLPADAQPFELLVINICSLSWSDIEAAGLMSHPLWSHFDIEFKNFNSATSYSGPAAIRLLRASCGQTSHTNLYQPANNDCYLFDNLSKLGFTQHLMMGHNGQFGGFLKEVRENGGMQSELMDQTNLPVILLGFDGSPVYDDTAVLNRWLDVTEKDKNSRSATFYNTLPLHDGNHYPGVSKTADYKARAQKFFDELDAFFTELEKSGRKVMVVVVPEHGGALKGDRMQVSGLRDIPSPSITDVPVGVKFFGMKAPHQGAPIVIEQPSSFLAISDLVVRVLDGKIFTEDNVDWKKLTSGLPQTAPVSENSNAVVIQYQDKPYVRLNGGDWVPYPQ
# T2: full-length Escherichia coli BcsC (Escherichia coli) (UniProt P37650)
# T2 sequence: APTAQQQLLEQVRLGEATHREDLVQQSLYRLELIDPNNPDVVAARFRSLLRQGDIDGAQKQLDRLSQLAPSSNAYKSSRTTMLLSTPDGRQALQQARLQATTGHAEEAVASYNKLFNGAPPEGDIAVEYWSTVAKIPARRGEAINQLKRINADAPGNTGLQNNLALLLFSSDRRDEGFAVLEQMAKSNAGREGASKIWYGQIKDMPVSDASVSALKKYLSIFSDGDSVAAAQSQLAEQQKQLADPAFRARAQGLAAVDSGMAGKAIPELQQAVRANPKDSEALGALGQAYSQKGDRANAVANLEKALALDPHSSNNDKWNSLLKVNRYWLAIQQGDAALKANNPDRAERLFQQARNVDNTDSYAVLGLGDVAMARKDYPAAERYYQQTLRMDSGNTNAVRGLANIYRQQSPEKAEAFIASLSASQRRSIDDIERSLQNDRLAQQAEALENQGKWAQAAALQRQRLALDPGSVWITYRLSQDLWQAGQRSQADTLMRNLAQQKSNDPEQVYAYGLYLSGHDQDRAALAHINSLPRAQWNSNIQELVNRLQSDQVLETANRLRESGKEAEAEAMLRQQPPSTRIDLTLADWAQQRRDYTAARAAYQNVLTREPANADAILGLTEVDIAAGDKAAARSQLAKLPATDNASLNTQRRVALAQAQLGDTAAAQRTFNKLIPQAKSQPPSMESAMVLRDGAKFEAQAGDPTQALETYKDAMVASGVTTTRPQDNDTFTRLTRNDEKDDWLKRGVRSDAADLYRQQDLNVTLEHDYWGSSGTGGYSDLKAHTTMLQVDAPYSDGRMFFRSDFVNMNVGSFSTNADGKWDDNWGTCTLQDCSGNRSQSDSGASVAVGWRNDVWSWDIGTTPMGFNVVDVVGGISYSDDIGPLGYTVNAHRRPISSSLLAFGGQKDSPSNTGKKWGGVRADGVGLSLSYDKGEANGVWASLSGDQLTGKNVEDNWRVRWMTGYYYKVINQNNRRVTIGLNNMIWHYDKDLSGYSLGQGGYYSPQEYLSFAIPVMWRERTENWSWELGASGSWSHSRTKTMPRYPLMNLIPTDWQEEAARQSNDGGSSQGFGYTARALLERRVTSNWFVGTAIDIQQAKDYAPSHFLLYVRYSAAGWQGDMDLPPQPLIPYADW
# Experiments:
# [1] = target: T1, Escherichia coli BcsG with C-terminal dodeca-histidine tag (Escherichia coli); experiment: pull-down + SEC; Strep-tagged BcsA NTD and His-tagged BcsG co-expressed in Ec C43 (DE3); membranes solubilised in LMNG/DMNG/CHS; tandem affinity purification on Ni-NTA then Strep-Tactin, then Superose 6 SEC; identities confirmed by Western blotting and tandem mass spectrometry
# [2] = target: T2, full-length Escherichia coli BcsC (Escherichia coli); experiment: cryo-EM structure; BcsC incubated with purified BcsZ at a molar 1:1.5; single particle analysis, about 2.7 Å for BcsZ; both purified
binding [1],binding [2],Binder
binds,–,"N-terminal domain of Escherichia coli BcsA (first 94 residues), Strep-tagged (domain or fragment, UniProt P37653 1-94) MSILTRWLLIPPVNARLIGRYRDYRRHGASAFSATLGCFWMILAWIFIPLEHPRWQRIRAEHKNLYPHINASRPRPLDPVRYLIQTCWLLIGAS"
–,no binding (tested: molar 1:1.5),"Escherichia coli cellulase BcsZ (enzyme, End of the His tag read from the plasmid's name; also called Ec BcsZ) ACTWPAWEQFKKDYISQEGRVIDPSDARKITTSEGQSYGMFSALAANDRAAFDNILDWTQNNLAQGSLKERLPAWLWGKKENSKWEVLDSNSASDGDVWMAWSLLEAGRLWKEQRYTDIGSALLKRIAREEVVTVPGLGSMLLPGKVGFAEDNSWRFNPSYLPPTLAQYFTRFGAPWTTLRETNQRLLLETAPKGFSPDWVRYEKDKGWQLKAEKTLISSYDAIRVYMWVGMMPDSDPQKARMLNRFKPMATFTEKNGYPPEKVDVATGKAQGKGPVGFSAAMLPFLQNRDAQAVQRQRVADNFPGSDAYYNYVLTLFGQGWDQHRFRFSTKGELLPDWGQECANSH"
